Source: patent US20130252950A1, “TARGETING MTOR SUBSTRATES IN TREATING PROLIFERATIVE DISEASES” (President and Fellows of Harvard College, priority 2010, published 2013)
At least one compound was matched to its structure with a doubt left.

How the values were obtained:
Type in all cases: cell-based, mouse
[1] = system: Grb10 protein in TSC2−/− cells; test: Immunoblot of Grb10 protein level after long-term treatment; settings: for Grb10 protein levels after long-term treatment: TSC2−/− cells, endogenous Grb10
Excerpt: FIG. 3. mTOR-mediated Grb10 phosphorylation is important for Grb10 stability. (A) Grb10 interacts with raptor, but not rictor. HA-tagged Grb10 was co-transfected with Myc-raptor or Myc-rictor in HEK293T cells. Cells were lysed in lysis buffer A, and the lysates were subjected to immunoprecipitation using anti-HA antibody conjugated beads. Raptor and rictor were probed with an antibody against the Myc-tag. (B) Grb10 is phosphorylated by mTOR in vitro. […] Phosphorylation of Grb10 at S501/S503 was detected by using the phospho-specific antibody against these two sites. (C) Long-term rapamycin treatment leads to Grb10 degradation in TSC2−/− cells. Note that Grb10 protein expression levels inversely correlated with Akt activity. Grb10 is highly overexpressed in TSC2−/− cells. mRNA level was determined using quantitative RT-PCR based on three biological replicate experiments. (D) Knockdown of raptor in TSC2−/− cells decreased Grb10 protein level. Cells were starved overnight and the lysates were probed with the antibodies indicated. (E) Grb10 is highly overexpressed in TSC2−/− cells. (F) S501A/S503A mutant is unstable compared with the wild-type or the S501D/S503D mutant. The same amount of DNA was transfected into HEK293T cells. […] Endogenous Grb10 was detected using an antibody that preferentially recognizes mouse Grb10 whereas the Grb10 DD mutant (of human origin) was detected using an anti-HA antibody.
FIG. 9. Phosphorylation of Grb10 at S501/S503 regulates its stability. […] Preincubation of the antibody with the […] completely eliminated the immunoreactivity. (B) Further validation of the phospho-specific antibody raised against the Grb10 S501/S503 sites. Grb10 WT, S501A/S503A (AA) and S501D/S503D (DD) were transfected into HEK239T cells and were probed with the antibody. Note that this antibody detected wild type (WT) Grb10, but neither of the mutant proteins. (C) Treatment of TSC2−/− cells with various mTOR kinase inhibitors led to Grb10 degradation. […] (E) Grb10 is highly overexpressed in TSC1−/− cells compared with their wild-type counterparts. […]

[2] = system: Grb10 S501/S503 phosphorylation in TSC2−/− cells; test: Immunoblot of Grb10 S501/S503 phosphorylation with phospho-specific antibody; settings: for Grb10 S501/S503 phosphorylation (immunoblot): serum-starved TSC2−/− cells, two hours, rapamycin 20 nM, staurosporine 100 nM, LY294002 20 μM, BEZ235 500 nM, torin 100 nM, pp 242 1 μM, Ku-0063794 at indicated concentrations
Procedure: (§1) FIG. 2. Phosphorylation of Grb10 at S501/S503 is sensitive to rapamycin inhibition. (A) Identification of a doubly-phosphorylated rapamycin-sensitive Grb10 peptide (MNILSS*QS*[…] , SEQ ID NO: 2, * indicates phosphorylation sites) corresponding to S501/S503. (B) Evolutionary conservation of Grb10 S501/S503 among vertebrate species. […] TSC2−/− cells were starved for serum and treated with 20 nM rapamycin for the indicated times. Sequences, from top to bottom: SEQ ID NO: 1723 to SEQ ID NO: 1727, respectively. (D) Phosphorylation of Grb10 at S501/501 is sensitive to amino acids withdrawal. TSC2−/− cells were starved in DMEM overnight and then transferred to D-PBS for the indicated times. (E) Phosphorylation of Grb10 at S501/S503 is not affected by the pan-kinase inhibitor, staurosporine. TSC2−/− cells were starved for serum and treated with either 100 nM staurosporine or Ku-0063794 at the indicated concentrations for two hours. (F) Grb10 phosphorylation is increased upon growth factor stimulation. Wild type (WT) mouse embryonic fibroblasts (MEFs) were starved for serum overnight and then were stimulated with insulin (100 nM) or serum (10%) for 15 min. The cells were preincubated with the indicated compounds for two hours. […] Rapamycin (rapa) was used at 20 nM. (G) Grb10 phosphorylation at S501/S503 is sensitive to various mTOR kinase inhibitors. TSC2−/− cells were serum-starved and treated with the indicated compounds for two hours. The concentrations of the compounds were rapamycin 20 nM, LY (LY294002) 20 μM, BEZ235 (NVP-BEZ235) 500 nM, torin 100 nM, and pp 242 1 μM.
We developed a phosphospecific antibody (FIGS. 9A and 9B) to further characterize these two Grb10 phosphorylation sites. […] The dephosphorylation kinetics correlated well with that of S6K.
We further investigated the effects of growth factor stimulation and rapamycin-mediated inhibition on Grb10 phosphorylation in other cell types. Wild-type MEFs were serum-starved and then stimulated with either insulin or 10% serum, both of which led to a robust increase in Grb10 phosphorylation (FIG. 2F). […]

[3] = system: Grb10 S501/S503 phosphorylation in wild type (WT) MEFs; test: Immunoblot of Grb10 phosphorylation after insulin or serum stimulation; settings: serum-starved WT MEFs, preincubated two hours (rapamycin 20 nM, AZD6244 5 μM), insulin 100 nM or serum 10% 15 min
Procedure: as §1, with “TSC2−/− cells were serum-starved and treated with the indicated compounds for two hours. The concentrations of the compounds were rapamycin 20 nM, LY (LY294002) 20 μM, BEZ235 (NVP-BEZ235) 500 nM, torin 100 nM, and pp 242 1 μM.” left out

[4] = system: Grb10 protein in TSC1−/− cells; test: Immunoblot of Grb10 protein level in TSC1−/− cells
Procedure: FIG. 9. Phosphorylation of Grb10 at S501/S503 regulates its stability. […] Preincubation of the antibody with the […] completely eliminated the immunoreactivity. (B) Further validation of the phospho-specific antibody raised against the Grb10 S501/S503 sites. Grb10 WT, S501A/S503A (AA) and S501D/S503D (DD) were transfected into HEK239T cells and were probed with the antibody. Note that this antibody detected wild type (WT) Grb10, but neither of the mutant proteins. (C) Treatment of TSC2−/− cells with various mTOR kinase inhibitors led to Grb10 degradation. […] (E) Grb10 is highly overexpressed in TSC1−/− cells compared with their wild-type counterparts. (F) rapamycin treatment of TSC2−/− cells stably expressing wild type (WT) Grb10 led to lower levels of both endogenous and exogenous Grb10.
In addition, long-term treatment with mTOR kinase inhibitors, including LY-294002, NVP-BEZ235, torin and pp 242 all led to reduced Grb10 protein expression (FIG. 9C). Similar results were obtained in TSC1−/− MEFs (FIG. 9D). In contrast, we found Grb10 was highly overexpressed in TSC2−/− and TSC1−/− MEFs compared with their wild-type counterparts (FIGS. 3E and 9E), correlating with elevated mTORC1 activity in these cells.

[5] = system: TSC2−/− MEFs; test: Rapamycin screen: SILAC quantitative phosphoproteomics (two biological replicates)
Procedure: Two sets of large-scale, quantitative phospho-proteomics experiments were performed to fully define how mTOR-containing complexes signal to downstream effectors (FIG. 1A). The first SILAC experiment (rapamycin screen) was performed using growth factor-deprived TSC2−/− mouse embryonic fibroblasts (MEFs).
Two populations of TSC2−/− cells were grown in parallel, one in conventional media (“light”) and the other in media containing [^13C6^15N2]lysine and [^13C6^15N4]arginine (“heavy”) (FIG. 1A and Table 5). […] We performed two biological replicates of this experimental design with cross-labeling (swapping the labeled state of the rapamycin-treated cells, Table 5), from which a total of 14,635 (FDR=0.25%) and 32,500 (FDR=0.28%) phosphopeptides were identified, respectively. These corresponded to identification of at least 4,484 and 6,832 unique phosphorylation sites on 1,615 and 1,866 proteins, respectively. The quantitation was highly accurate (Table 5) with 93.7% of the phosphoproteome changing less than 50% in abundance between the rapamycin-treated (light) and control (heavy) cells (second biological replicate experiment, Median Log2(H/L)=−0.02 and standard deviation Log2(H/L)=0.53, FIG. 1A). […] Note that the Rapamycin screen includes two biological replicates.
Using this criteria, several hundred peptides (corresponding to 148 and 85 proteins respectively, in the two biological replicates, Table 11) were determined to contain rapamycin-sensitive phosphorylation sites. […] Note that there are two biological replicate experiments for the rapamycin screen (“Table 11 Rapa Replicate 1,” and “Table 11 Rapa Replicate 2,” respectively) and one Ku-0063749 replicate (“Table 11 Ku”). Treatment for the light and heavy cells in each experiment is described in FIG. 1C. We observed a similar distribution for the phosphopeptides in the […] biological replicate experiment and found 85 proteins (Table 11) that carried rapamycin-sensitive phosphorylation sites.
The analysis identified 4,484 and 6,832 unique phosphorylation sites on 1,615 and 1,866 proteins from two biological replicate experiments, respectively, and achieved a high level of accuracy in quantitation (Table 5). […] A representative identification of the known rapamycin-sensitive phosphorylation sites on ribosomal protein S6 is shown in FIG. 1B.
TSC2−/− MEFs were used in the rapamycin screen due to constitutive hyperactivation of mTORC1 signaling in this cell line. Cells were grown in light ([^12C6^14N2]Lys, [^12C6^14N4]Arg) and heavy ([^13C6^15N2]Lys, [^13C6^15N4]Arg) DMEM (Cambridge Isotope Labs), respectively. Both light and heavy DMEM were supplemented with 10% dialyzed FBS (Invitrogen). Cells were serum-deprived for 17 hours and cells were cultured inheavy media were treated with 20 nM rapamycin for two hours. We performed two biological replicates of this experimental design with cross-labeling (swapping the labeled state of the rapamycin-treated cells).

| SMILES | Grb10 protein levels after long-term treatment [1] | Grb10 S501/S503 phosphorylation (immunoblot) [2] | endogenous and ectopically expressed wild-type Grb10 levels ([1]; TSC2−/− cells expressing HA-tagged wild-type Grb10, rapamycin treatment) | time to dephosphorylation of Grb10 S501/S503 ([2]; TSC2−/− MEFs, 20 nM rapamycin) [min] | insulin- or serum-induced Grb10 S501/S503 phosphorylation [3] | level of Grb10 in TSC1−/− cells [4] | phosphorylation of Grb10 sites S455 and S458 ([5]; 2-hr rapamycin treatment) | Median (treated/ctrl) fold-change of triply phosphorylated Grb10 peptide T76, S96, S104 ([5]; downregulated phosphorylation, TSC2−/− MEFs, 20 nM rapamycin 2 h vs DMSO, second biological replicate) | 4EBP T36/T45 phosphorylation (FIG. 6A) ([5]; rapamycin screen) | FLNC S2234 phosphorylation (Class II site) ([5]; rapamycin screen) | NDRG1 S330/S333 phosphorylation (Class II site) ([5]; rapamycin screen) | intensity of T70 singly phosphorylated 4EBP1 peptide ([5]; rapamycin screen) |
| --- | --- | --- | --- | --- | --- | --- | --- | --- | --- | --- | --- | --- |
| O=c1cc(N2CCOCC2)oc2c(-c3ccccc3)cccc12 [LY294002] | reduced | completely abolished | – | – | – | – | – | – | – | – | – | – |
| CO[C@H]1C[C@@H]2CC[C@@H](C)[C@@](O)(O2)C(=O)C(=O)N2CCCC[C@H]2C(=O)O[C@H]([C@H](C)C[C@@H]2CC[C@@H](O)[C@H](OC)C2)CC(=O)[C@H](C)/C=C(\C)[C@@H](O)[C@@H](OC)C(=O)[C@H](C)C[C@H](C)/C=C/C=C/C=C/1C [rapamycin] | significant decrease | completely inhibited | decreased | ≤ 15 | completely blocked | decreased level | did not change | about five | partially responsive | insensitive | not affected | did not change |
